Results are given in words; binding and its absence hold for the method and conditions named. In cells and extracts the contact can be indirect. A yes stands for co-enrichment or nearness to the bait. Other partners may have been found.
Target: Glucocorticoid receptor (human (endogenous in THP-1)) (UniProt P04150)
Experiment: affinity purification with mass spectrometry

Amino acid sequences for entries named in this document (tags omitted). Residues count along the entry.
UniProt P04150: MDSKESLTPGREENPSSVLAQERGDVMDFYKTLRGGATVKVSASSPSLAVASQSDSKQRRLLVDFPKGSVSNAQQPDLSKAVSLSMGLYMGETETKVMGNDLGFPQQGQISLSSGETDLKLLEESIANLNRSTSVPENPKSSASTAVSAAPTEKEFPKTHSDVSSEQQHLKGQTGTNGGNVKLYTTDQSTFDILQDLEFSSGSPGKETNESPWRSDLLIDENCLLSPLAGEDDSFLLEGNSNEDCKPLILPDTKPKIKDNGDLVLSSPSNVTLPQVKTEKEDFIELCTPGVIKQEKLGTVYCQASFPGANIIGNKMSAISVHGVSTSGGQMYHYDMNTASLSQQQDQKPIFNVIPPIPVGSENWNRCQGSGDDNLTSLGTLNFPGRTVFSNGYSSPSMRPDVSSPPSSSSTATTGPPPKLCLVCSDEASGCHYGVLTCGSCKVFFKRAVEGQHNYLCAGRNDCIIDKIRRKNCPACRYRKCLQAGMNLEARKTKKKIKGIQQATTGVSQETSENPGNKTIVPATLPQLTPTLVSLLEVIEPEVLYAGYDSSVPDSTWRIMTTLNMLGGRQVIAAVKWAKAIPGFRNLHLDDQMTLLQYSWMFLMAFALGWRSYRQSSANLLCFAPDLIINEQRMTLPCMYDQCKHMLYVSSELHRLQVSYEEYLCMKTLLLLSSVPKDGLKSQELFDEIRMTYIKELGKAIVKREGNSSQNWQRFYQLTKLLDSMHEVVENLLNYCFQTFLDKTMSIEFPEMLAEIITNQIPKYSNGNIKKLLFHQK
UniProt P01009, residues 25-418: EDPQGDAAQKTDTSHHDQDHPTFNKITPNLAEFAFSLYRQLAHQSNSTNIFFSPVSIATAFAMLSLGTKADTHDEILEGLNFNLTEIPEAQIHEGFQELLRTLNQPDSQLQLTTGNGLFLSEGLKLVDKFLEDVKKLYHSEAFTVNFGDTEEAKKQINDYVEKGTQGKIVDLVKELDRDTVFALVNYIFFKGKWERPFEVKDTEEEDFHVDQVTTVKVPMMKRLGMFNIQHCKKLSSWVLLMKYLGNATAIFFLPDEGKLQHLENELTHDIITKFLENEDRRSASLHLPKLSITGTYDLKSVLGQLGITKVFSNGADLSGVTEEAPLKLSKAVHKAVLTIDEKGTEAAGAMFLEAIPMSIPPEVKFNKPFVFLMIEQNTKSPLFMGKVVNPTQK

binding: binds
Substance: Alpha-1-antitrypsin (from UniProt P01009 25-418)

From paper doi:10.1101/2022.03.11.483896
